Measured values as given in PubChem BioAssay AID2685 (National Center for Advancing Translational Sciences (NCATS), 2010).
The other results are listed elsewhere or left out. Shown are side measurements of this screen, not its main read-out; they come without a call. Compounds called inactive in the main read-out are mostly missing here. The note in brackets gives the kind of curve behind each potency; many fits are weak.

Experiment: qHTS Assay for Lipid Storage Modulators in Drosophila S3 Cells;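 on cell number change: cells counted by Cell Tracker Red CMTPX staining in the red channel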
Conditions: BODIPY lipid droplet fluorescence, 18-24 h; for cell number change: measured here: cell count max response, cells fed with added oleic acid
Procedure, shortened: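 Laser-scanning cytometry quantifies lipid droplet accumulation (500–530 nm total intensity; droplet/cell object ratio) in oleic acid-fed (400 uM added) Drosophila S3 cells treated with a concentration series. 20 uM Triacsin C defined 100% inhibition.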

[1] = measured here: cell number channel AC50, cells fed with added oleic acid
[2] = measured here: lipid fluorescence (Fed channel) AC50, cells fed with added oleic acid

Q: With O=C(C1CCC(Cn2c(=S)[nH]c3ccccc3c2=O)CC1)N1CCOCC1 (centres undefined) as the compound, how does the cell number change read?
A: -20.6%

Q: For CSc1nncn1/N=C/c1ccc([N+](=O)[O-])cc1, which cell number change is on record?
A: -142%

Q: And the AC50 [1]?
A: 29.1 µM [falling, partial curve]

Q: And the AC50 [2]?
A: 23.1 µM [falling, single point]

Q: For CC(C)(C)c1ccc(C(=O)NNC(=O)c2ccncc2)cc1, which cell number change is on record?
A: -2.62%

Q: What about the AC50 [2] of the same compound?
A: 29.1 µM [rising, single point]

Q: What does the source list for Cc1nc(C)c(-c2csc(Nc3ccc(O)c(C(=O)O)c3)n2)s1?
A: cell number change: -10.4%; AC50 [2]: 29.1 µM [rising, single point]

Q: Which results are given for O=C(COC(=O)CN1C(=O)C2CCCCC2C1=O)NC1CCS(=O)(=O)C1 (centres undefined)?
A: cell number change: -3.49%; AC50 [1]: 5.17 µM [falling, partial curve]; AC50 [2]: 29.1 µM [falling, partial curve, poor fit]

Q: For Cc1cc(C)nc(Nc2nc(-c3ccccc3)cs2)n1, which cell number change is on record?
A: -22%

Q: And the AC50 [2]?
A: 6.51 µM [falling, full curve, poor fit]

Q: With COc1ccc(N(C(=O)c2cccc(OC)c2OC)C2C=CS(=O)(=O)C2)c(OC)c1 (centres undefined) as the compound, how does the AC50 [1] read?
A: 0.092 µM [falling, full curve, poor fit]

Q: What about the AC50 [2] of the same compound?
A: 0.651 µM [falling, single point]

Q: For O=C(O)c1nn2c(C(F)(F)F)cc(-c3cccs3)nc2c1Cl, which cell number change is on record?
A: 11.5%

Q: And the AC50 [2]?
A: 2.59 µM [rising, single point]

Q: With COc1ccc(N=NC2C(=O)N(c3ccccc3)N=C2C)cc1 (centres undefined) as the compound, how does the cell number change read?
A: -31.3%

Q: What about the AC50 [1] of the same compound?
A: 7.31 µM [falling, full curve, poor fit]

Q: And the AC50 [2]?
A: 2.91 µM [falling, full curve]

Q: With CCN(CC)S(=O)(=O)c1cccc(C(=O)/C=C2/N(C)c3ccccc3C2(C)C)c1 as the compound, how does the cell number change read?
A: 13.9%

Q: What about the AC50 [2] of the same compound?
A: 6.51 µM [rising, single point]

Q: For Cn1nnnc1SCC(=O)Nc1nc(-c2ccc(F)c(F)c2)cs1, which AC50 [1] is on record?
A: 6.51 µM [rising, single point]

Q: What does the source list for c1ccc2c3c([nH]c2c1)C1(CCCCC1)NCC3?
A: cell number change: -47.7%; AC50 [1]: 29.1 µM [falling, single point]

Q: Which results are given for O=C(NCc1cccnc1)c1ccc(Cl)c(S(=O)(=O)N2CCCCCC2)c1?
A: cell number change: 4.86%; AC50 [1]: 0.00517 µM [rising, full curve, poor fit]

Q: For Cc1ccc(S(=O)(=O)N(C(=O)c2ccncc2)c2ccc3oc4c(c3c2)CCCC4)cc1[N+](=O)[O-], which cell number change is on record?
A: 8.79%

Q: And the AC50 [2]?
A: 32.6 µM [falling, single point]

Q: What does the source list for O=C(CCn1nc(-c2ccccc2)ccc1=O)N1CCCC1?
A: cell number change: 20.7%; AC50 [1]: 4.61 µM [falling, partial curve]; AC50 [2]: 2.59 µM [falling, full curve]

Q: With c1ccc(CCn2nnnc2C(c2cccs2)N2CCN(Cc3ccc4c(c3)OCO4)CC2)cc1 (centres undefined) as the compound, how does the cell number change read?
A: -17%

Q: What about the AC50 [1] of the same compound?
A: 0.184 µM [rising, full curve, poor fit]

Q: For O=C(Nc1ccc2oc(-c3cccc(F)c3)nc2c1)c1ccccc1F, which cell number change is on record?
A: -5.55%

Q: With COc1cc2c(cc1OC)C1O[C@](CCCCN3C(=O)c4ccccc4C3=O)(C2)OC2=C1C(=O)CCC2 as the compound, how does the cell number change read?
A: 30.6%

Q: Which results are given for COc1ccc(NC2=CC(=O)CC(C)(C)C2)cc1?
A: cell number change: 12%; AC50 [2]: 2.91 µM [rising, partial curve, poor fit]

Q: Which cell number change does the source give for CCN1CCN(C(=O)c2nn(-c3ccccc3)c(=O)c3ccccc23)CC1 here?
A: -15.3%

Q: What about the AC50 [2] of the same compound?
A: 5.17 µM [falling, partial curve]

Q: Which results are given for Nn1c(Cc2ccccc2F)nnc1SCCOc1ccc(Cl)cc1?
A: cell number change: -12.7%; AC50 [1]: 0.731 µM [rising, single point]

Q: With CN(C)CCOC(c1ccc(Cl)cc1)c1ccccn1 (centres undefined) as the compound, how does the cell number change read?
A: 0.528%

Q: And the AC50 [1]?
A: 6.51 µM [rising, single point]

Q: With O=C(CSc1nc(=O)n2ccccc2n1)N1CCCc2ccccc21 as the compound, how does the cell number change read?
A: -32.6%

Q: What about the AC50 [1] of the same compound?
A: 32.6 µM [falling, single point]

Q: What about the AC50 [2] of the same compound?
A: 4.61 µM [falling, partial curve]

Q: Which AC50 [1] does the source give for O=C(CP(=O)(CO)CO)c1ccc(Cl)cc1 here?
A: 4.11 µM [falling, single point]

Q: Which cell number change does the source give for COc1cccc(/C=C(\C#N)c2nc3ccccc3[nH]2)c1OCC(=O)O here?
A: 34.1%

Q: And the AC50 [1]?
A: 29.1 µM [rising, single point]

Q: For CC1(C)COC(c2ccc(F)c([N+](=O)[O-])c2)=N1, which cell number change is on record?
A: -13.5%

Q: For CC(C)OC(=O)/C(C#N)=C/c1cn(Cc2ccccc2)c2ccccc12, which cell number change is on record?
A: -3.16%

Q: What about the AC50 [2] of the same compound?
A: 29.1 µM [falling, single point]

Q: Which cell number change does the source give for O=C(CSc1nnc(Cc2ccccc2)o1)c1cc(F)ccc1F here?
A: 35.3%

Q: What about the AC50 [2] of the same compound?
A: 25.9 µM [rising, single point]

Q: With CC1CCCCN1C(=O)Cn1c(=O)oc2cc(S(=O)(=O)N3CCCC3)ccc21 (centres undefined) as the compound, how does the cell number change read?
A: -9.88%

Q: And the AC50 [2]?
A: 1.03 µM [rising, full curve]

Q: Which cell number change does the source give for CCC(=O)c1ccc(OCC(=O)OCC(=O)N2CCN(c3ccc(OC)cc3)CC2)cc1 here?
A: 6.33%

Q: And the AC50 [1]?
A: 0.00517 µM [falling, full curve, poor fit]

Q: And the AC50 [2]?
A: 5.17 µM [falling, full curve]

Q: For O=C(NC(=O)c1ccccc1)NC(=O)c1ccccc1, which cell number change is on record?
A: 39.8%

Q: What about the AC50 [1] of the same compound?
A: 16.4 µM [rising, single point]

Q: For COc1cccc(CNC(=O)CNC(=O)c2cccs2)c1, which cell number change is on record?
A: 2.67%

Q: With CCCCOc1ccc(-c2nc(SCC(N)=O)n[nH]2)cc1 as the compound, how does the cell number change read?
A: -1.39%

Q: Which AC50 [2] does the source give for COc1ccc(NC(=O)Nc2nnc(N3CCCCC3C)s2)cc1OC (centres undefined) here?
A: 20.6 µM [rising, single point]

Q: With COc1ccc(C(=O)Nc2cccc3ccccc23)cc1 as the compound, how does the cell number change read?
A: 2.11%

Q: With COc1cc(Nc2cc(C)nc3nc(C)nn23)cc(OC)c1OC as the compound, how does the cell number change read?
A: -24.4%

Q: And the AC50 [2]?
A: 29.1 µM [falling, single point]

Q: Which results are given for COc1ccc(C(=O)Nc2ccc(C(=O)OCC(=O)c3cccc4ccccc34)cc2)cc1?
A: cell number change: -21.4%; AC50 [2]: 4.11 µM [falling, full curve, poor fit]

Q: For CCc1ccc(OCC(O)CN2CCN(c3ccccc3)CC2)cc1 (centres undefined), which cell number change is on record?
A: 0.993%

Q: And the AC50 [2]?
A: 9.2 µM [falling, single point]

Q: With CCCCCn1c(CN2CCN(Cc3ccccc3)CC2)nc2c1c(=O)n(C)c(=O)n2C as the compound, how does the cell number change read?
A: -21.4%

Q: What about the AC50 [2] of the same compound?
A: 18.4 µM [falling, partial curve]

Q: Which results are given for CC(=O)OCc1c(-c2ccccc2)c2cc([N+](=O)[O-])ccc2n1C?
A: cell number change: -1.39%; AC50 [2]: 6.51 µM [rising, partial curve]

Q: Which results are given for COc1ccc(S(=O)(=O)NCCCN2CCCC2=O)cc1OC?
A: cell number change: -33.9%; AC50 [1]: 25.9 µM [falling, single point]

Q: For CC(C)c1nc(C#N)c(NCCCn2ccnc2)o1, which cell number change is on record?
A: -3.09%

Q: And the AC50 [2]?
A: 4.11 µM [rising, full curve]

Q: For CN1CCN(S(=O)(=O)c2ccc3c(c2)oc(=O)n3C)CC1, which cell number change is on record?
A: 19.5%

Q: Which cell number change does the source give for CC1(c2ccccc2Br)NC(=O)N(CC(=O)NC2CCCCC2)C1=O (centres undefined) here?
A: -10.5%

Q: What about the AC50 [2] of the same compound?
A: 2.31 µM [rising, single point]

Q: With O=C(/C=C/c1ccccc1)Nc1cc(S(=O)(=O)N2CCOCC2)ccc1N1CCCC1 as the compound, how does the cell number change read?
A: -33.1%

Q: And the AC50 [1]?
A: 5.8 µM [falling, partial curve, poor fit]

Q: And the AC50 [2]?
A: 0.00651 µM [falling, full curve]

Q: With Cc1cccc(NC(=S)Nc2ccc(Br)cc2)c1 as the compound, how does the cell number change read?
A: -19.3%

Q: What does the source list for Cc1nc(SCC(=O)NC2CCCCC2C)c(C#N)c(C)c1C (centres undefined)?
A: cell number change: 31.7%; AC50 [1]: 23.1 µM [rising, single point]; AC50 [2]: 29.1 µM [rising, single point]

Q: With COc1cc(C2C(C#N)=C(N)N(Nc3ccccc3)C3=C2C(=O)CC(C)(C)C3)ccc1OCc1cccc(F)c1 (centres undefined) as the compound, how does the cell number change read?
A: -6.51%

Q: With COc1ccc2oc(=O)c(-c3csc(Nc4cccc(O)c4)n3)cc2c1 as the compound, how does the cell number change read?
A: 8.29%

Q: And the AC50 [2]?
A: 23.1 µM [rising, single point]

Q: Which cell number change does the source give for COc1ccc(-c2csc(NC(=O)c3ccc(N4C(=O)CCC4=O)cc3)n2)cc1OC here?
A: 41.9%

Q: And the AC50 [1]?
A: 16.4 µM [rising, single point]

Q: With Cc1ccc(C2c3c(oc4cc(C)c(C)cc4c3=O)C(=O)N2CCCN2CCOCC2)cc1 (centres undefined) as the compound, how does the cell number change read?
A: 91.6%

Q: What about the AC50 [1] of the same compound?
A: 10.3 µM [rising, partial curve]

Q: What about the AC50 [2] of the same compound?
A: 6.51 µM [rising, single point]

Q: For C=CCN1C(=O)c2ccc(C(=O)N(C)CC(=O)Nc3ccccc3Br)cc2C1=O, which cell number change is on record?
A: -27.8%

Q: And the AC50 [2]?
A: 18.4 µM [falling, single point]

Q: With CN(Cc1ccccc1F)C(=O)CN1C(=O)NC2(CCc3ccccc32)C1=O (centres undefined) as the compound, how does the AC50 [2] read?
A: 0.00461 µM [rising, full curve, poor fit]

Q: What does the source list for CCOC(=O)CC1=CC(C)(CC(=O)OCC)C(C#N)(C#N)C(N)=C1C#N (centres undefined)?
A: cell number change: 89.2%; AC50 [1]: 6.51 µM [rising, partial curve]

Q: What does the source list for CCOc1ccccc1N1CCN(C(=O)c2c(Cl)cnn2C)CC1?
A: cell number change: -31.7%; AC50 [1]: 6.51 µM [falling, partial curve]

Q: Which cell number change does the source give for O=C(NCc1ccccc1)C(c1ccccc1)N(C(=O)c1csnn1)c1ccc(F)cc1 (centres undefined) here?
A: -4.76%

Q: Which cell number change does the source give for Cc1nn(C)cc1/C=N/n1nnnc1N here?
A: 6.26%

Q: And the AC50 [2]?
A: 0.164 µM [falling, full curve, poor fit]

Q: Which results are given for CCCN1C(=O)c2ccc(C(=O)Nc3nccs3)cc2C1=O?
A: cell number change: 72.8%; AC50 [1]: 20.6 µM [rising, single point]; AC50 [2]: 0.651 µM [falling, single point]

Q: Which cell number change does the source give for CC1(C)Cc2cccc(OCC(=O)OCC(=O)c3ccccc3)c2O1 here?
A: 18.8%

Q: And the AC50 [2]?
A: 29.1 µM [rising, single point]

Q: With CCN(Cc1ccccc1)S(=O)(=O)c1cc2c3c(c1)CCN3C(=O)CC2 as the compound, how does the cell number change read?
A: 14.5%

Q: What does the source list for O=C(CCc1nc2ccccc2[nH]1)N1CCc2ccccc2C1?
A: cell number change: 1.99%; AC50 [2]: 0.116 µM [falling, full curve, poor fit]

Q: Which cell number change does the source give for Cc1ccc(C)c(-c2nnc(NC(=O)C3=COCCO3)o2)c1 here?
A: 39.2%

Q: What about the AC50 [1] of the same compound?
A: 16.4 µM [rising, single point]

Q: And the AC50 [2]?
A: 16.4 µM [rising, partial curve]
